One assay addresses MRG15 (human) (UniProt Q9UBU8). As to the kind of experiment: Y2H; INT ID 15.
Assay [1] has as its target T1, Human papillomavirus 11 E4 (Human papillomavirus 11) (UniProt P20969).
T1 sequence: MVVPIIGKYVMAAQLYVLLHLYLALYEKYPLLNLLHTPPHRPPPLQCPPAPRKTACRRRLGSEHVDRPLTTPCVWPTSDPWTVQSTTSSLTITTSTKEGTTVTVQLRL
As to the kind of experiment: Y2H; INT ID 2.

Amino acid sequences for entries named in this document (tags omitted). A change or cut given only in a name is not applied to a line headed by its entry. Residues count along the entry.
UniProt Q9UBU8: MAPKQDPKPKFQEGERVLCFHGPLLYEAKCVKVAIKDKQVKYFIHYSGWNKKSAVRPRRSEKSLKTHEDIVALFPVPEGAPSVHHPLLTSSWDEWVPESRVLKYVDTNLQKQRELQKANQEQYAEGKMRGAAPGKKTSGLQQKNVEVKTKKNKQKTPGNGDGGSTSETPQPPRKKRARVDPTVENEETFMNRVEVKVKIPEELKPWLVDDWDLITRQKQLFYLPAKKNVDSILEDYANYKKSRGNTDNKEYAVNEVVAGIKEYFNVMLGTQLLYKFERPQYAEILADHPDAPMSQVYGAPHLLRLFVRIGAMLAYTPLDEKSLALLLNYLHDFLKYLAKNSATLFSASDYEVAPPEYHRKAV
UniProt Q6NV74: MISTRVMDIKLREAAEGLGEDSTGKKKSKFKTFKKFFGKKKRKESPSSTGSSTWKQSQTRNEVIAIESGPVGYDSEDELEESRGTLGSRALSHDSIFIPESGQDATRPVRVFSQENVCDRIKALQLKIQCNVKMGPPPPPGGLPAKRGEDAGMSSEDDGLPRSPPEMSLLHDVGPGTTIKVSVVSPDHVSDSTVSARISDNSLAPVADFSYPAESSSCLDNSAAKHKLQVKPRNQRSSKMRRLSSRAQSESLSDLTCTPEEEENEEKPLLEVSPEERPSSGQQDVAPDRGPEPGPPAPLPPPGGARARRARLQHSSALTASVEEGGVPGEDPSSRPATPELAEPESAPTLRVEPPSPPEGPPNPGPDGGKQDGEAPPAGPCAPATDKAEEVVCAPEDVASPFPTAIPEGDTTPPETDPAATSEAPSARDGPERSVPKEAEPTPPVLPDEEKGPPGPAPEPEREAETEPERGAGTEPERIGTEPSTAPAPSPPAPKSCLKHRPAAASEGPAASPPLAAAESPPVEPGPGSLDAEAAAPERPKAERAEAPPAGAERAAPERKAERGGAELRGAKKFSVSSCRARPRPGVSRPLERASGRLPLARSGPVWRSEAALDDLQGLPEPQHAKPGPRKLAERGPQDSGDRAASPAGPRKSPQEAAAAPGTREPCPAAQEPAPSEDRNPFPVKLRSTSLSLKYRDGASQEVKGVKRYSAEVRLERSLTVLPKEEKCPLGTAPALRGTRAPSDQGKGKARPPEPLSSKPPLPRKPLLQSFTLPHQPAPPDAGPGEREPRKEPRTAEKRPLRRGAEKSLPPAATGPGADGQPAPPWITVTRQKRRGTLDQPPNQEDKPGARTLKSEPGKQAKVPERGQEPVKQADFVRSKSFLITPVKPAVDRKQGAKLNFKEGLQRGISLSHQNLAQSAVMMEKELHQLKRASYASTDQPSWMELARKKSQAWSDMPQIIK
UniProt Q9UK28, residues 25-342: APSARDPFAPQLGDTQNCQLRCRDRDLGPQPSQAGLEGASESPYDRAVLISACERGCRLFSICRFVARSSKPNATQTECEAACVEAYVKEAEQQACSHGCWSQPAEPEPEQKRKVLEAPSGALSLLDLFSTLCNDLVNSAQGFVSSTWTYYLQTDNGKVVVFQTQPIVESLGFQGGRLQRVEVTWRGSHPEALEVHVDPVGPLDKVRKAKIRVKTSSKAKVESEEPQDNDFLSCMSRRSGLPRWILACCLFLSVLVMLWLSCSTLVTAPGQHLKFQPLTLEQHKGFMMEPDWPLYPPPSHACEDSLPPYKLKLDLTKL
UniProt Q15582: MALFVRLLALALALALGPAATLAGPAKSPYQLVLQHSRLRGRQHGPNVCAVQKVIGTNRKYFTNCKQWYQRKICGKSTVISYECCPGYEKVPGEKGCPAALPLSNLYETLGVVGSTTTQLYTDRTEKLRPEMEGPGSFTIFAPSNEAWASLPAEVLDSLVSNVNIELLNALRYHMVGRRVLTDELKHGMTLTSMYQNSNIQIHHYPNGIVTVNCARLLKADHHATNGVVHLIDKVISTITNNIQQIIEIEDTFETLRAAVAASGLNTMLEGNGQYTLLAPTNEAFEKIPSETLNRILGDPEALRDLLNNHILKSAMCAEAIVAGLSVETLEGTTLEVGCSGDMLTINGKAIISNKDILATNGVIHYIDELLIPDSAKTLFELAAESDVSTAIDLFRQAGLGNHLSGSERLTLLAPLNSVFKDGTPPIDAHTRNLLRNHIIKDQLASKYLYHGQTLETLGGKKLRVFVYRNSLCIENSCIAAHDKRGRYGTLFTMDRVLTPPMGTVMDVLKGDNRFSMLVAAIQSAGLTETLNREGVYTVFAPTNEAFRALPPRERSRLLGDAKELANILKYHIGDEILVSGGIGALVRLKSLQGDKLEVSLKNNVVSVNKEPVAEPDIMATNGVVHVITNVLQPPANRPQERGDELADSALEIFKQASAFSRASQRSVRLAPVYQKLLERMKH
UniProt P17987: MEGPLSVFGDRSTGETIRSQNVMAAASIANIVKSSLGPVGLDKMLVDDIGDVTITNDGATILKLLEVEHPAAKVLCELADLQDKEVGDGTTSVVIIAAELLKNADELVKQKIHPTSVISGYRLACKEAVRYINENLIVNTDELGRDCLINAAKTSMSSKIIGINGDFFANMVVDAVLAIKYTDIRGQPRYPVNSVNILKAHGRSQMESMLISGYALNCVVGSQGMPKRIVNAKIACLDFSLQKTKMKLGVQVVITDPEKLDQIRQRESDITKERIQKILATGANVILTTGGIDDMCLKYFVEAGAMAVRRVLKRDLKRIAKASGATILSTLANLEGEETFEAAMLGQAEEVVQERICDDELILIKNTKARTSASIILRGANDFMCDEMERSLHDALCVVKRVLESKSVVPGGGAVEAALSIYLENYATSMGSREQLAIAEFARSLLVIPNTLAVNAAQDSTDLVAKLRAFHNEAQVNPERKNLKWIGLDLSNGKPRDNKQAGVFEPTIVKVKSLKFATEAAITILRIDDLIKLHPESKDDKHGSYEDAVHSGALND
UniProt Q16854: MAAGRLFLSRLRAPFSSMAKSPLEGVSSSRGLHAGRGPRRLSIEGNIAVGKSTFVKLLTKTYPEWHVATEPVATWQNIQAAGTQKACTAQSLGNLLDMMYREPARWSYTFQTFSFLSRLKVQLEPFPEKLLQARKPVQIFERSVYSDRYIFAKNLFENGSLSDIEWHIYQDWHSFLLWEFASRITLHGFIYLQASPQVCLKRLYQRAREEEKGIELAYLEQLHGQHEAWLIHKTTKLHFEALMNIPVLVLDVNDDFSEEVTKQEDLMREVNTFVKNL

In a further assay the target is Prey1053092. As to the kind of experiment: Y2H; INT ID 145.
For assay [2], the target named is Prey1620 (Homo sapiens (Human)) (UniProt Q9BQA5). As to the kind of experiment: Y2H; INT ID 167.
Assay [3] addresses T2, MIZF (human) (UniProt Q9BQA5).
T2 sequence: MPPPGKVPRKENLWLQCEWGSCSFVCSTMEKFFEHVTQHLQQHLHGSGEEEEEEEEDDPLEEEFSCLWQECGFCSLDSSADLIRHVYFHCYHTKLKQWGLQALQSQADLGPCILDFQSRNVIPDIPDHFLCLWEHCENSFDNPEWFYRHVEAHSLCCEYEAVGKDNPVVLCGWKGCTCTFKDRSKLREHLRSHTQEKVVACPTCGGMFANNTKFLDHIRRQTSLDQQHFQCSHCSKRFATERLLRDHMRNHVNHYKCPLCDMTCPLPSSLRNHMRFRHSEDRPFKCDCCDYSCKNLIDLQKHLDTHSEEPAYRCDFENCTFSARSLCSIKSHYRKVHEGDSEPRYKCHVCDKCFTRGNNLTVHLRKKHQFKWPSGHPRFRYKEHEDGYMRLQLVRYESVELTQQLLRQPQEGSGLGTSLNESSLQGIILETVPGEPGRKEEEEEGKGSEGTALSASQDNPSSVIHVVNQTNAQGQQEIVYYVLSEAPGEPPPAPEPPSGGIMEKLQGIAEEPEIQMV
As to the kind of experiment: Y2H; INT ID 177.

Assay [4] addresses Prey1628 (Homo sapiens (Human)) (UniProt Q6NV74). As to the kind of experiment: Y2H; INT ID 163.
The target of a further assay is T3, ZNF-U69274 (human) (UniProt O95625).
T3 sequence: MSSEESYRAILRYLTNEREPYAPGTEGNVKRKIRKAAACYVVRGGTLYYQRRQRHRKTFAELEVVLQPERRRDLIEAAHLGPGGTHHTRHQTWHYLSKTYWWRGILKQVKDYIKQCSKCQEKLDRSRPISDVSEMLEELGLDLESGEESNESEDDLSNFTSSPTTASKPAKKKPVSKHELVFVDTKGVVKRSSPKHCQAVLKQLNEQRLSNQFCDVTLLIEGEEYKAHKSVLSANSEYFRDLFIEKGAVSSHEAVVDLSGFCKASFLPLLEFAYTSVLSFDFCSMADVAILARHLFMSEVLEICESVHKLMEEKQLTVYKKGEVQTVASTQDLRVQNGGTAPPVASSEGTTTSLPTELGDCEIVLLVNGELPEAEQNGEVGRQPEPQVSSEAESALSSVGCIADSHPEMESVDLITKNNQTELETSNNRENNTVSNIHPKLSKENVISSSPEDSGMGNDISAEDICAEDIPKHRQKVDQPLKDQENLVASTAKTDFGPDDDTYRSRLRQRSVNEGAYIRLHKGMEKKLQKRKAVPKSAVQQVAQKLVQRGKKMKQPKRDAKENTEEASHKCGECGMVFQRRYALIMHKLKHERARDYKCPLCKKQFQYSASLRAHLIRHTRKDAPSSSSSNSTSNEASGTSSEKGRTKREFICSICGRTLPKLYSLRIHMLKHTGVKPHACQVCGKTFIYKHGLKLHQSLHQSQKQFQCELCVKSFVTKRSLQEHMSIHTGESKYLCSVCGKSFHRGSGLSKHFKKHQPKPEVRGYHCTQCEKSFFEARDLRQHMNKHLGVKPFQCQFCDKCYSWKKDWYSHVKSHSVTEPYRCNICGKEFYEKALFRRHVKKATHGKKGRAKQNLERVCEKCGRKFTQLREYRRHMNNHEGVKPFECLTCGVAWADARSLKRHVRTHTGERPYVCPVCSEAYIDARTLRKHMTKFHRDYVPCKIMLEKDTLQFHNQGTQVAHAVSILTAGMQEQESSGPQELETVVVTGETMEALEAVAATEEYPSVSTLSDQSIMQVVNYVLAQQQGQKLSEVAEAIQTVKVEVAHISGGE
As to the kind of experiment: Y2H; INT ID 178.

Assay [5] deals with T4, Breakpoint cluster region 1 protein (BCR1) (human) (UniProt P11274).
T4 sequence (looked up): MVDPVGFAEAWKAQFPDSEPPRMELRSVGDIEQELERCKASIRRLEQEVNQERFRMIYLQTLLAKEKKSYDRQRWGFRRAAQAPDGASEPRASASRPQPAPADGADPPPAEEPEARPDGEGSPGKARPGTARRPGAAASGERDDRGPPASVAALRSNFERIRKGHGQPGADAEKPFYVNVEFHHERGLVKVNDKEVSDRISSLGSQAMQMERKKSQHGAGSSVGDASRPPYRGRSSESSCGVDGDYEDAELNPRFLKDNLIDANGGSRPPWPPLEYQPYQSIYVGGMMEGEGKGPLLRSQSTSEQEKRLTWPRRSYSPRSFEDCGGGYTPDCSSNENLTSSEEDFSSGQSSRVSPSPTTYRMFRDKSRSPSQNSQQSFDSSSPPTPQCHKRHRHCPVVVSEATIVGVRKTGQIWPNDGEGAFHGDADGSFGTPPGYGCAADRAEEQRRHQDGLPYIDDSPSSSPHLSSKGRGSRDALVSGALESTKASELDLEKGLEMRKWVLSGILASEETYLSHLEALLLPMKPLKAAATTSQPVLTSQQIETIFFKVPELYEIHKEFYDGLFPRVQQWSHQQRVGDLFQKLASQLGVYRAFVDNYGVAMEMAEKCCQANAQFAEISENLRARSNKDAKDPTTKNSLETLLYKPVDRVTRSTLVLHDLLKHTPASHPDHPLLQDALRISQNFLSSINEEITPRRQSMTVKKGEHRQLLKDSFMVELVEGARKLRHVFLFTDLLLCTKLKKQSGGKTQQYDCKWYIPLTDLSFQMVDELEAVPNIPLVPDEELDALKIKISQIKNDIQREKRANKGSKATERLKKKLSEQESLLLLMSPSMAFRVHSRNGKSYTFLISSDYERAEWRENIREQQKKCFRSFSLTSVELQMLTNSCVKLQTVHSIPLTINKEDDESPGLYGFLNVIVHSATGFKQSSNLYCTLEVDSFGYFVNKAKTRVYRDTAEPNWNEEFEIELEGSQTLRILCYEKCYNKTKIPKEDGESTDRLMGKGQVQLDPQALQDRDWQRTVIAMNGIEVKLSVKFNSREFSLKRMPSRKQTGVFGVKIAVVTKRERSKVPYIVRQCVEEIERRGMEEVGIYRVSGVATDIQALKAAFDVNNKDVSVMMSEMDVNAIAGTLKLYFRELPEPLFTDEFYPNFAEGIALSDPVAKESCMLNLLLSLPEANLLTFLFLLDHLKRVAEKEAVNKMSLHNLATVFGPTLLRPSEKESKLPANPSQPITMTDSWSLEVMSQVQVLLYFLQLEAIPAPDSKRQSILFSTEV
As to the kind of experiment: Y2H; INT ID 165.

For a further assay, the target named is T5, SBP2 (human) (UniProt Q96T21).
T5 sequence: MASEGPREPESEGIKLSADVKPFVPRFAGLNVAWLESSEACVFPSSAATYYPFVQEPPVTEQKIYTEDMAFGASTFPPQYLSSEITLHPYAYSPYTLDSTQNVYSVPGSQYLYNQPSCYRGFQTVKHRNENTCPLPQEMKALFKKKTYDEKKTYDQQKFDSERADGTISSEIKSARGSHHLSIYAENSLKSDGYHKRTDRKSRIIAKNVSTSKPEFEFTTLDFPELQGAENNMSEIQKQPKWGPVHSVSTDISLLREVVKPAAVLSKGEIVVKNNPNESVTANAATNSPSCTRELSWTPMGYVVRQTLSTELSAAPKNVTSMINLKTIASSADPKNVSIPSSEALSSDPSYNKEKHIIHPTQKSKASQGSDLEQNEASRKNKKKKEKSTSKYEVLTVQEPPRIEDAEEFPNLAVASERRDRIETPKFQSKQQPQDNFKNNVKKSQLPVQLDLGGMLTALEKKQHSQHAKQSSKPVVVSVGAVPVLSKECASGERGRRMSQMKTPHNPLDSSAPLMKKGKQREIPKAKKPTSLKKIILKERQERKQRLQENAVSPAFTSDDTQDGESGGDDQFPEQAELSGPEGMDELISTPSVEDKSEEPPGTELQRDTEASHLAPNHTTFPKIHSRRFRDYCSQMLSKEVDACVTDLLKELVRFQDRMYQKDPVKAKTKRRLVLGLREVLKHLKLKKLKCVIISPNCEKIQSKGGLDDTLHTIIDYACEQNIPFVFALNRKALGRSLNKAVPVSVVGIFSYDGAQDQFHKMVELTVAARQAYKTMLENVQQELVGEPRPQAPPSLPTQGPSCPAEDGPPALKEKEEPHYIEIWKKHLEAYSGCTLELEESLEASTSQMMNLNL
As to the kind of experiment: Y2H; INT ID 180.

For the next assay, the target named is BSMAP (human) (UniProt Q9UK28). As to the kind of experiment: Y2H; INT ID 149.
For another assay, the target named is Prey142356 (human). As to the kind of experiment: Y2H; INT ID 413.
In assay [6] the target is T2, MIZF (human). As to the kind of experiment: Y2H; INT ID 190.
For another assay, the target named is gbh_ac004503 (human) (UniProt Q15582). As to the kind of experiment: Y2H; INT ID 428.
The target in assay [7] is T6, LOC51182 (human) (UniProt Q0VDF9).
T6 sequence: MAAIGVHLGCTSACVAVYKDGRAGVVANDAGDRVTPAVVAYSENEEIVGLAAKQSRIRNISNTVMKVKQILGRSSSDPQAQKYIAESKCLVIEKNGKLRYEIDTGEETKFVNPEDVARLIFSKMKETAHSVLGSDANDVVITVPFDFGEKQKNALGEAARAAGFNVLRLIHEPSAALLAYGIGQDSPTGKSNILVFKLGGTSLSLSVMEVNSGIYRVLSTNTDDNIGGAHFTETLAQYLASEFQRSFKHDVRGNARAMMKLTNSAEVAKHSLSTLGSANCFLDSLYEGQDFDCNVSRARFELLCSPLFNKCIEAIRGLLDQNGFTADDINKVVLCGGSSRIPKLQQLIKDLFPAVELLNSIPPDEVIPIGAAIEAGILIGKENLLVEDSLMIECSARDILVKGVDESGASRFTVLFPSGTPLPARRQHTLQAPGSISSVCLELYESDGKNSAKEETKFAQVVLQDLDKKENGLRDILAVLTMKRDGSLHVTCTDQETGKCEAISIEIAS
As to the kind of experiment: Y2H; INT ID 162.

For another assay, the target named is gbh_d38112_5 (human). As to the kind of experiment: Y2H; INT ID 159.
In a further assay the target is TCP-1 (UniProt P17987). As to the kind of experiment: Y2H (told in text).
The target of assay [8] is T6, LOC51182 (human). As to the kind of experiment: Y2H; INT ID 586.

No constants are given. Whether binding was seen depends on the method and setting. Some binding calls cover weakened binding; strength is not graded here.

As to “Human papillomavirus 11 E2 (from UniProt P04015 1-367)”, the binding result in the assay with MRG15 (human) is given as “binds”. Regarding “deoxyguanosine kinase (from UniProt Q16854 40-277) (enzyme)”, the binding result in assay [1] was “binds”. As to “Human papillomavirus 16 E1 (from UniProt P03114 1-649)”, in the assay with Prey1053092, the binding result is “binds”. In the case of “Human papillomavirus 16 E7 (from UniProt P03129 1-98)”, the binding entry (in assay [2]; with MIZF (human) [3]; in assay [4]; in the assay with ZNF-U69274 (human); in [5]; with SBP2 (human)) was “binds” in each case.

Turning to “Human papillomavirus 16 E2 (from UniProt P03120 1-365)”, the binding entry with BSMAP (human) is recorded as “binds”. For the substance “Human Papillomavirus 1a E2 (from UniProt P03118 1-401)”, the binding entry with Prey142356 (human) is “binds”. For the substance “Human papillomavirus 16 L2 (from UniProt P03107 1-473)”, in the assay with MIZF (human) [6], the binding result is given as “binds”. Take “Human Papillomavirus 1a E7 (from UniProt P06465 1-93)”: in the assay with gbh_ac004503 (human), the binding result is listed as “binds”. For the substance “Human papillomavirus 16 E6 (from UniProt P03126 1-158)”, the binding result in the assay with LOC51182 (human) [7], with gbh_d38112_5 (human) and with TCP-1 was “binds” in each case. For the substance “Human Papillomavirus 1a E1 (from UniProt P03111 1-612)”, in the assay with LOC51182 (human) [8], the binding entry is given as “binds”.

(Values after patent US20050100554A1.)
